Experimental data taken from patent US20250121090A1 (priority 2021, published 2025).

Assay: general procedure: solution-phase peptide synthesis; PNP carbonate / PFP ester with DIPEA, HOAt
Details: conjugation step

Substance | conjugation yield [% yield] | conjugation yield (over 2 steps) [% yield over 2 steps]
(2S,3S,4S,5R,6S)-6-(5-((5S,8S,11S,12R)-11-((S)-sec-butyl)-12-(2-((S)-2-((1R,2R)-3-(((1S,2R)-1-hydroxy-1-phenylpropan-2-yl)amino)-1-methoxy-2-methyl-3-oxopropyl)pyrrolidin-1-yl)-2-oxoethyl)-5,8-diisopropyl-4,10-dimethyl-3,6,9-trioxo-2,13-dioxa-4,7,10-triazatetradecyl)-2-((2S,5S,18R)-22-(2-((1,2-dimethylhydrazineyl)methyl)-1H-pyrrolo[2,3-b]pyridin-1-yl)-5-isopropyl-2-methyl-4,7,17,20-tetraoxo-18-(sulfomethyl)-10,13-dioxa-3,6,16,19-tetraazadocosanamido)phenoxy)-3,4,5-trihydroxytetrahydro-2H-pyran-2-carboxylic acid | 75 | –
(2S,3S,4S,5R,6S)-6-(5-((5S,8S,11S,12R)-11-((S)-sec-butyl)-12-(2-((S)-2-((1R,2R)-3-(((1S,2R)-1-hydroxy-1-phenylpropan-2-yl)amino)-1-methoxy-2-methyl-3-oxopropyl)pyrrolidin-1-yl)-2-oxoethyl)-5,8-diisopropyl-4,10-dimethyl-3, 6,9-trioxo-2,13-dioxa-4,7,10-triazatetradecyl)-2-((2S,5S)-19-(2-((1,2-dimethylhydrazineyl)methyl)-1H-pyrrolo[2,3-b]pyridin-1-yl)-5-isopropyl-2-methyl-4,7,17-trioxo-10,13-dioxa-3,6,16-triazanonadecanamido)phenoxy)-3,4,5-trihydroxytetrahydro-2H-pyran-2-carboxylic acid | – | 47
